10 sequences from publication PMC6418084 can be followed below.

Chains of the proteins cited; added tags and fusions are not shown. Lines headed by an entry give the natural chain unless they say otherwise; changes in a name come on top.
UniProt P09084: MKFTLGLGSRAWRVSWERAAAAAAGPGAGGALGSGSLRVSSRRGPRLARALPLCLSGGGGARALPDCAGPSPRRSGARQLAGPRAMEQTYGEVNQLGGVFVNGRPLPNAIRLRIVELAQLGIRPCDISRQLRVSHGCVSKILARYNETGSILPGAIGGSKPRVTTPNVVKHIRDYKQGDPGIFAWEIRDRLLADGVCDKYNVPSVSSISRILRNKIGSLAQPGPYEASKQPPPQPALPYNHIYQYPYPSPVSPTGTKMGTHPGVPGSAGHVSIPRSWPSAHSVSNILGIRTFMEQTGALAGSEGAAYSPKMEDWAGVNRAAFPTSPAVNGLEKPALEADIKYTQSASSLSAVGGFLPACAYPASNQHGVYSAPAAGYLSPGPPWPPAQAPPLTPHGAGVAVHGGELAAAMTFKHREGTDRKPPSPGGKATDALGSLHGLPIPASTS
UniProt P47242: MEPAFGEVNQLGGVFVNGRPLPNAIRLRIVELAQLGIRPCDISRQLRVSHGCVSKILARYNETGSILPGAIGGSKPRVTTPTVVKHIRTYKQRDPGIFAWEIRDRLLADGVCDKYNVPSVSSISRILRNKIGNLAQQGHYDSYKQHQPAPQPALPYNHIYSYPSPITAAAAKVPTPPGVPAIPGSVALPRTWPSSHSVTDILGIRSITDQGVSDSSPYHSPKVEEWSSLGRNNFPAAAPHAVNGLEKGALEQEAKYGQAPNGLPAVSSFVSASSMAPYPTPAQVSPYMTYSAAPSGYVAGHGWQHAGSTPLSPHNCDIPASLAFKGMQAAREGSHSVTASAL

Construct, isoform or probe ends are uncertain for at least one entry. Where cells or extracts were used, other partners may take part. No signal at the amounts used counts as a negative. For some assays here: At least one verdict rests on a figure or table, not on a statement of the authors. For some assays here: Where a protein sequence is shown, tags need not be part of it. For some assays here: A weaker result is weaker than the reference pair of the same experiment.

Holding throughout (assay): EMSA
Background: In EMSA bound probe runs differently from free probe, usually more slowly.

One data set deals with FLAG-PAX1 (mouse) (UniProt P09084). As to conditions: Active Motif Gelshift Chemiluminescent EMSA kit, HEK293T nuclear extracts, 5-100 fmol biotin probe, for SOX9 20 uL with 1 ug poly(dG-dC) and 20 ug BSA, protein in an extract, protein details: N-terminal FLAG, label: biotin 3' end.
The next data set addresses FLAG-PAX9 (mouse) (UniProt P47242). As to conditions: Active Motif Gelshift Chemiluminescent EMSA kit, HEK293T nuclear extracts, 5-100 fmol biotin probe, for SOX9 20 uL with 1 ug poly(dG-dC) and 20 ug BSA, protein in an extract, protein details: N-terminal FLAG, label: biotin 3' end.
The next data set concerns the target PAX1 (mouse) (UniProt P09084). As to conditions: with SOX9 extract; Active Motif Gelshift Chemiluminescent EMSA kit, HEK293T nuclear extracts, 5-100 fmol biotin probe; for SOX9 20 uL with 1 ug poly(dG-dC) and 20 ug BSA; protein in an extract; label: biotin 3' end.
A further data set deals with T1, SOX9 (mouse) (UniProt Q04887).
T1 sequence (looked up, limits assumed): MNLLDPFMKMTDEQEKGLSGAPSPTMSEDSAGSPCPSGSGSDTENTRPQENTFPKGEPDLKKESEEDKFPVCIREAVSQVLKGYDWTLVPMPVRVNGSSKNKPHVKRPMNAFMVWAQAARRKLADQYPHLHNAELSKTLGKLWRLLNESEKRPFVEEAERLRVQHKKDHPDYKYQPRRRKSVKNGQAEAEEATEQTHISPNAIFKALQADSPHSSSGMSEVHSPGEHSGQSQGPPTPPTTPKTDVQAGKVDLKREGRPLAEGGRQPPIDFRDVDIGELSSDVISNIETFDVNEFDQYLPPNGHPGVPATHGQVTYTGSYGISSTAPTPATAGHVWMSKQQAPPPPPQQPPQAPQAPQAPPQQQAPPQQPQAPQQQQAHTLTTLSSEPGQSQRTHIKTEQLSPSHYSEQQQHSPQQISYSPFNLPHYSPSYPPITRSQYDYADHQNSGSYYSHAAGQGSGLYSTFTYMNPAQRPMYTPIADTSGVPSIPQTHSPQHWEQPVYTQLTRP
Particulars: Active Motif Gelshift Chemiluminescent EMSA kit, HEK293T nuclear extracts, 5-100 fmol biotin probe, for SOX9 20 uL with 1 ug poly(dG-dC) and 20 ug BSA, protein in an extract, label: biotin 3' end.

As for “TTTCAAACCTGGCAGGGTGAATAGGTGCCTTGTGTTCAGGCTTAAAAATCTGGAA (double strand) [UE m7 (PAX1/9 site mutated)]”, the binding result is on record as “no binding” with FLAG-PAX1 (mouse), “no binding” with FLAG-PAX9 (mouse), “no binding” with PAX1 (mouse) and “binds” in the data set with SOX9 (mouse) (with PAX1 extract).

As for “TTTCAAACCTGGCAGGGTGAATAGGTGCCAAAAATTCAGGCTTATGACTCTGGAA (double strand) [UE m5]”, in the data set with FLAG-PAX1 (mouse), the binding result is “no binding”.

In the case of “TTTCAAACCTGGCAAAAAAAATAGGTGCCTTGTGTTCAGGCTTATGACTCTGGAA (double strand) [UE m1]”, the binding result with FLAG-PAX1 (mouse) is “binds”.

For the sequence “TTTCAAACCTGGCAGGGTGAATAGGTGCCTTGTGTTCAGGCTTATGACTCAAATT (double strand) [UE m8]”, the binding result with FLAG-PAX1 (mouse) is reported as “no binding”.

Regarding “TTTCAAACCTGGCAGGGTGAAAAAAAGCCTTGTGTTCAGGCTTATGACTCTGGAA (double strand) [UE m2]”, in the data set with FLAG-PAX1 (mouse), the binding result is “binds”.

On to “TTTCAAACCTGGCAGGGTGAATAGGTGCAAAAAGTTCAGGCTTATGACTCTGGAA (double strand) [UE m4]”, for which the binding result in the data set with FLAG-PAX1 (mouse) is “binds”.

As for “TTTCAAACCTGGCAGGGTGAATAGGTGCCTTGTGTTCAGGCTTATGACTCTGGAA (double strand) [UE wt 301-355]”, the binding result in the data set with FLAG-PAX1 (mouse) (anti-FLAG supershift) was “binds”; with FLAG-PAX9 (mouse) (anti-FLAG supershift), “binds”; in the data set with PAX1 (mouse), “binds”; with SOX9 (mouse), “binds”; with SOX9 (mouse) (with PAX1 extract added (PAX1 competes)) it was “binds more weakly”.

In the case of “TTTCAAACCTGGCAGGGTGAATAGGTGCCTTGTGTTCAGGCTTATGACTCTAATT (double strand) [UE m9]”, in the data set with FLAG-PAX1 (mouse), the binding result is “binds”.

Regarding “TTTCAAACCTGGCAGGGTGAATAGGTGAAAAATGTTCAGGCTTATGACTCTGGAA (double strand) [UE m3 (SOX9 site mutated)]”, the binding result with FLAG-PAX1 (mouse) was “binds”; with FLAG-PAX9 (mouse), “binds”; with PAX1 (mouse) it was “binds”; with SOX9 (mouse) (with PAX1 extract) it was “no binding”.

Consider “TTTCAAACCTGGCAGGGTGAATAGGTGCCTTGTGTTCAAAAATATGACTCTGGAA (double strand) [UE m6]”, for which, in the data set with FLAG-PAX1 (mouse), the binding result was “no binding”.
